Assay [1] concerns the target EGFP-tagged wild-type SEC23B (human) (UniProt Q15437). The experiment in a line: affinity purification with mass spectrometry; anti-GFP (Abcam ab290) immunoprecipitation from lysates of stable Nthy-ori 3-1 cells, 10 mg total protein as 2 mg/ml lysates; cells untreated or treated with MG132 (10 uM, 24 h); normal rabbit IgG and Nthy-EGFP cells as negative controls; SDS-PAGE, then mass spectrometry.

The target in assay [2] is EGFP-tagged p.Val594Gly mutant SEC23B (human) (UniProt Q15437). The description is as above.

These are yes or no findings as the source states them, for the method shown. Binding seen in cells or lysates may run through a third protein. These calls come from enrichment with a bait or labelling near it, and not all partners need be listed. For some assays here: Where a sequence is shown, tags or fusion partners need not be part of it.

B1: SEC23IP (protein, UniProt Q9Y6Y8 1-1000)
chain: MAERKPNGGSGGASTSSSGTNLLFSSSATEFSFNVPFIPVTQASASPASLLLPGEDSTDVGEEDSFLGQTSIHTSAPQTFSYFSQVSSSSDPFGNIGQSPLTTAATSVGQSGFPKPLTALPFTTGSQDVSNAFSPSISKAQPGAPPSSLMGINSYLPSQPSSLPPSYFGNQPQGIPQPGYNPYRHTPGSSRANPYIAPPQLQQCQTPGPPAHPPPSGPPVQMYQMPPGSLPPVPSSVQSPAQQQVPARPGAPSVQVPSPFLLQNQYEPVQPHWFYCKEVEYKQLWMPFSVFDSLNLEEIYNSVQPDPESVVLGTDGGRYDVYLYDRIRKAAYWEEEPAEVRRCTWFYKGDTDSRFIPYTEEFSEKLEAEYKKAVTTNQWHRRLEFPSGETIVMHNPKVIVQFQPSSVPDEWGTTQDGQTRPRVVKRGIDDNLDEIPDGEMPQVDHLVFVVHGIGPVCDLRFRSIIECVDDFRVVSLKLLRTHFKKSLDDGKVSRVEFLPVHWHSSLGGDATGVDRNIKKITLPSIGRFRHFTNETLLDILFYNSPTYCQTIVEKVGMEINHLHALFMSRNPDFKGGVSVAGHSLGSLILFDILSNQKDLNLSKCPGPLAVANGVVKQLHFQEKQMPEEPKLTLDESYDLVVENKEVLTLQETLEALSLSEYFSTFEKEKIDMESLLMCTVDDLKEMGIPLGPRKKIANFVEHKAAKLKKAASEKKAVAATSTKGQEQSAQKTKDMASLPSESNEPKRKLPVGACVSSVCVNYESFEVGAGQVSVAYNSLDFEPEIFFALGSPIAMFLTIRGVDRIDENYSLPTCKGFFNIYHPLDPVAYRLEPMIVPDLDLKAVLIPHHKGRKRLHLELKESLSRMGSDLKQGFISSLKSAWQTLNEFARAHTSSTQLQEELEKVANQIKEEEEKQVVEAEKVVESPDFSKDEDYLGKVGMLNGGRRIDYVLQEKPIESFNEYLFALQSHLCYWESEDTALLLLKEIYRTMNISPEQPQH
In the case of B1, the binding entry in assay [1] and in assay [2] was “binds” in each case.

The values are drawn from PMC7985502.
